Here are results for one substance from patent US20170349627 (published 2017).

This data set can be described thus: peptide synthesis. The note with it: late stage modification step, acetate.

With caspofungin acetate, the “final HPLC purity” value is on record as 99.82% (run 1) and 99.76% (run 2).
